For the test, the system named is L1210 leukemia ip in BDF1 mice, survival T/C. Kind of test: NCI In Vivo Anticancer Drug Screen. Data for tumor model L1210 Leukemia (intraperitoneal) in B6D2F1 (BDF1) mice. As to conditions: T/C endpoint: mean survival time, higher T/C = longer survival.
[1] abbreviates: dose: 400.0 mg/kg/injection, schedule: Q01DX001 (ip), vehicle: saline.
The mark [2] stands for this setting: dose: 400.0 mg/kg/injection, schedule: Q04DX003 (ip), vehicle: Klucel (hydroxypropylcellulose) (HPC).
Where [3] appears, read: dose: 40.0 mg/kg/injection, schedule: Q04DX003 (ip), vehicle: Klucel (hydroxypropylcellulose) (HPC).
[4] abbreviates: dose: 100.0 mg/kg/injection, schedule: Q04DX003 (ip), vehicle: Klucel (hydroxypropylcellulose) (HPC).
[5] abbreviates: dose: 200.0 mg/kg/injection, schedule: Q04DX003 (ip), vehicle: Klucel (hydroxypropylcellulose) (HPC).
Setting [6] is: dose: 100.0 mg/kg/injection, schedule: Q01DX009 (ip), vehicle: saline.
Setting [7] is: dose: 200.0 mg/kg/injection, schedule: Q01DX009 (ip), vehicle: saline.
[8] abbreviates: dose: 400.0 mg/kg/injection, schedule: Q01DX009 (ip), vehicle: Klucel (hydroxypropylcellulose) (HPC).
Where [9] appears, read: dose: 300.0 mg/kg/injection, schedule: Q01DX001 (ip), vehicle: saline.
Where [10] appears, read: dose: 200.0 mg/kg/injection, schedule: Q04DX003 (ip), vehicle: saline.
Setting [11] is: dose: 400.0 mg/kg/injection, schedule: Q04DX003 (ip), vehicle: saline.
Setting [12] is: dose: 50.0 mg/kg/injection, schedule: Q04DX003 (ip), vehicle: saline.

The list is a part of this screen's results and no random one: it gathers tests that were run many times, whatever their T/C, doses with no T/C, and many T/C values between a quarter and a half above the control. Other doses and runs of a compound stand elsewhere. T/C gives the treated animals as a percentage of the vehicle group. Some entries give survivors of the animals treated and no T/C: the source files T/C as zero there, which appears to mark a toxic dose or a test without result, not a measured value. Some survivor counts are full or nearly so, which does not show that the dose was tolerated: survival well below the control is almost never listed, so the zero probably covers shortened survival too. Counts of survivors are from the toxicity check (mostly the fifth day) where no day follows; animals may have died later. Schedules are NCI's codes, taken here to give the interval after Q, in days (D) or hours (H), and the number of doses after X. Some schedule codes hold Z or #, which are not explained here. Where survival is the endpoint, this PubChem deposit counts one and a half times the control or more as active, and values a quarter to a half above the control carry no call in these data; other NCI protocols may use other cut-offs.

Turning to `O=C1C=CC(=O)N1c1ccc(Br)c(Cl)c1`, the survivor count runs as follows: (dose: 100.0 mg/kg/injection, schedule: Q04DX002 (ip), vehicle: other) 1 of 3; (dose: 200.0 mg/kg/injection, schedule: Q04DX002 (ip), vehicle: other) 0 of 3; (dose: 400.0 mg/kg/injection, schedule: Q04DX002 (ip), vehicle: other) 0 of 3.

With `Clc1ccc(-n2cnnn2)cc1`, the survivor count under setting [1] is on record as 3 of 6.

On to `CN(C)CCCNC(=S)C(=S)NCCCN(C)C`, for which the survivor count under setting [2] is 0 of 6.

As to `N=C(N)SC1c2ccccc2-c2ccc(Br)cc21` (stereo not given), the survivor count (dose: 300.0 mg/kg/injection, schedule: Q01DX001 (ip), vehicle: carboxymethylcellulose (CMC)) is 0 of 6.

For `O=C(Nc1cc(C(F)(F)F)ccc1Cl)Nc1cc(Cl)c(Oc2ccc(Cl)cc2)cc1S(=O)(=O)O`, where the note is “dose: 400.0 mg/kg/injection, schedule: Q04DX003 (ip), vehicle: saline sonified”, the survivor count is listed as 0 of 6.

For `CC1(C)N=C(N)N=C(N)N1c1ccc(CC(C(=O)Nc2cccc(S(=O)(=O)F)c2)c2ccccc2)cc1` (stereo not given), the survivor count reads like this: (dose: 175.0 mg/kg/injection, schedule: Q01DX001 (ip), vehicle: saline) 3 of 6; (dose: 350.0 mg/kg/injection, schedule: Q01DX001 (ip), vehicle: saline) 0 of 6.

Consider `CC(C)c1ccccc1SCC1=NCCN1`, for which the survivor count runs as follows: under setting [3], 0 of 6; under setting [4], 0 of 6; under setting [5], 0 of 6; under setting [2], 0 of 6.

Consider `CCN(CC)CC(=O)NCC(CCCCN1CCCC1)(c1cccc2ccccc12)C(C)C` (stereo not given), for which the survivor count under setting [6] was 0 of 6; the survivor count under setting [7] is 0 of 6; the survivor count (dose: 400.0 mg/kg/injection, schedule: Q01DX009 (ip), vehicle: saline) was 0 of 6.

For `OC1CCN(c2c3ccccc3nc3ccccc23)CC1`, the survivor count is 0 of 3 (dose: 100.0 mg/kg/injection, schedule: Q04DX002 (ip), vehicle: saline); 0 of 3 (dose: 200.0 mg/kg/injection, schedule: Q04DX002 (ip), vehicle: saline); 0 of 3 (dose: 400.0 mg/kg/injection, schedule: Q04DX002 (ip), vehicle: saline).

For the compound `NNc1n[nH]c(=O)n1N`, the survivor count under setting [2] is given as 0 of 6.

For `Nc1c(Cl)cc(C(=O)NC2CC2)cc1Cl`, the survivor count reads like this: (dose: 200.0 mg/kg/injection, schedule: Q01DX009 (ip), vehicle: Klucel (hydroxypropylcellulose) (HPC)) 5 of 6; under setting [5], 4 of 4; under setting [8], 0 of 6; under setting [2], 0 of 4.

With `CSc1nsc2nnc(N)n12`, under setting [9], the survivor count was 2 of 6.

In the case of `CC(C)c1ccc(/C=N/NC(=O)c2ccc[n+](C)c2)cc1`, the survivor count is, setting by setting: under setting [6], 0 of 3; under setting [7], 0 of 3.

As to `CN=NNc1ccc(C)cc1`, the T/C (dose: 100.0 mg/kg/injection, schedule: Q01DX009 (ip), vehicle: Klucel (hydroxypropylcellulose) (HPC)) is 127 % of control. Also, the survivor count under setting [4] was 6 of 6; the survivor count under setting [5] is 6 of 6; the survivor count under setting [1] is given as 2 of 4; the survivor count under setting [8] is listed as 0 of 6; the survivor count under setting [2] is given as 5 of 6.

For `O=C1C=CC(=O)N1c1ccc(O)cc1`, the survivor count by setting is: (dose: 10.0 mg/kg/injection, schedule: Q04DX003 (ip), vehicle: Klucel (hydroxypropylcellulose) (HPC)) 2 of 6; (dose: 20.0 mg/kg/injection, schedule: Q04DX003 (ip), vehicle: Klucel (hydroxypropylcellulose) (HPC)) 1 of 6; under setting [3], 0 of 6; (dose: 80.0 mg/kg/injection, schedule: Q04DX003 (ip), vehicle: Klucel (hydroxypropylcellulose) (HPC)) 0 of 6; under setting [4], 0 of 6; under setting [5], 0 of 6. Also, the survivor count under setting [2] is recorded as 0 of 6.

For `c1ccc2nc(CCC3CCCCN3)ccc2c1` (stereo not given), the survivor count (dose: 500.0 mg/kg/injection, schedule: Q01DX Z (ip), vehicle: methylcellulose (MC)) was 3 of 6; the survivor count (dose: 750.0 mg/kg/injection, schedule: Q01DX Z (ip), vehicle: methylcellulose (MC)) is 0 of 6; the survivor count (dose: 1000.0 mg/kg/injection, schedule: Q01DX Z (ip), vehicle: methylcellulose (MC)) was 0 of 6.

As to `Nc1ccn(C2OC(CO)C(O)C2OP(=O)(O)OCC2OC(n3ccc(=O)[nH]c3=O)CC2O)c(=O)n1` (stereo not given), under “dose: 25.0 mg/kg/injection, schedule: Q01DX009 (ip), vehicle: saline”, the T/C is 137 % of control.

In the case of `CCC(/C=C1\[Se]c2ccc(C)cc2N1CC)=C\c1[se]c2ccc(C)cc2[n+]1CC`, the survivor count (dose: 8.0 mg/kg/injection, schedule: Q01DX001 (ip), vehicle: other) was 3 of 6; the survivor count (dose: 9.5 mg/kg/injection, schedule: Q01DX001 (ip), vehicle: other) is given as 0 of 6; the survivor count (dose: 19.0 mg/kg/injection, schedule: Q01DX001 (ip), vehicle: other) is given as 0 of 6; the survivor count (dose: 38.0 mg/kg/injection, schedule: Q01DX001 (ip), vehicle: other) is 0 of 6.

Consider `COc1ccc(OC(=O)Nc2cc(C)ccc2C)cc1`, for which, under setting [8], the survivor count is 5 of 6.

Turning to `CN1CCCCC1CCN1c2ccccc2Sc2ccc(Cl)cc21` (stereo not given), the survivor count (dose: 50.0 mg/kg/injection, schedule: Q01DX009 (ip), vehicle: saline) is given as 2 of 6.

Regarding `CCN(CC)CCOc1cc(C)cc2ccccc12`, the survivor count was 2 of 6 under setting [10] and 0 of 6 under setting [11].

Turning to `O=C(O)c1cc(=O)c(O)c2c(O)c(O)c(O)cc2c1`, the survivor count under setting [1] is given as 2 of 4.

`CCN(C)CCC(C=NCC(CCN(C)CC)(CCN(C)CC)c1cccc2ccccc12)(CCN(C)CC)c1cccc2ccccc12`: the survivor count is, setting by setting: under setting [12], 0 of 6; (dose: 100.0 mg/kg/injection, schedule: Q04DX003 (ip), vehicle: saline with Tween-80) 0 of 6; (dose: 200.0 mg/kg/injection, schedule: Q04DX003 (ip), vehicle: saline with Tween-80) 1 of 6; (dose: 400.0 mg/kg/injection, schedule: Q04DX003 (ip), vehicle: saline with Tween-80) 0 of 6.

Regarding `C[N+]1(C)C2CCC1CC(=NO)C2`, the survivor count was 0 of 6 (dose: 150.0 mg/kg/injection, schedule: Q01DX001 (ip), vehicle: saline) and 0 of 6 under setting [9].

As to `COc1c(C)c2c(c(Br)c1N)COCO2`, under setting [2], the survivor count is 4 of 6.

As for `CCOC(=O)C(C)[P+](c1ccccc1)(c1ccccc1)c1ccccc1` (stereo not given), the survivor count reads like this: (dose: 6.0 mg/kg/injection, schedule: Q01DX009 (ip), vehicle: saline) 2 of 6; (dose: 12.5 mg/kg/injection, schedule: Q04DX003 (ip), vehicle: saline) 3 of 6; (dose: 25.0 mg/kg/injection, schedule: Q04DX003 (ip), vehicle: saline) 0 of 6; under setting [12], 0 of 6; (dose: 100.0 mg/kg/injection, schedule: Q04DX003 (ip), vehicle: saline) 0 of 6; under setting [10], 0 of 6. In addition, the survivor count under setting [11] is 0 of 6.

Turning to `O=C1C(Cl)CCCCC1Cl` (stereo not given), the survivor count (dose: 400.0 mg/kg/injection, schedule: Q01DX009 (ip), vehicle: acetone) was 1 of 6.

For the compound `CC(=O)OC1COC(n2cnc3c(=O)[nH]cnc32)C(OC(C)=O)C1OC(C)=O` (stereo not given), the T/C (dose: 50.0 mg/kg/injection, schedule: Q01DX001 (ip), vehicle: saline) is 129 % of control.

As to `CC(=O)C(CCC#N)(CCC#N)C(C)=O`, the T/C (dose: 200.0 mg/kg/injection, schedule: Q04DX002 (ip), vehicle: Klucel (hydroxypropylcellulose) (HPC)) is 125 % of control.

(Values after PubChem BioAssay AID248 (DTP/NCI, 2004).)
